PubChem BioAssay AID651664 (NMMLSC, 2012)
The campaign covered roughly 1,800 compounds. Fewer than 10 were called active.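 How the source made its calls: active means inhibition of granule release above a set limit; inactive means the rest.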 The list shows a part of the results.

Assay: LAMP-1 surface externalization blockers in TALL-104 cells – cell-based, flow cytometry, validation set (AID 651664)
Conditions: TALL-104 LAMP-1 externalization, at 15.2 µM, active compounds read high, stimulated with thapsigargin and PMA

| Compound | inhibition |
| --- | --- |
| CCCc1nnc(NC(=O)CNc2ccc(F)cc2)s1 | inactive: 3.5% |
| O=C(c1ccc(F)cc1)c1ccc(N2CCCC2)cc1 | inactive: -4.5% |
| O=C(NCCCN1CCN(c2cccc(Cl)c2)CC1)C1CCC(=O)N1Cc1ccccc1Cl (stereo unspecified) | inactive: 0.3% |
| Fc1ccc(Nc2nc(N3CCOCC3)c3ccccc3n2)cc1 | inactive: 1.6% |
| O=C(Cc1ccc(Cl)cc1)Nc1ccc(N2CCN(C(=O)c3ccco3)CC2)c(Cl)c1 | inactive: 14% |
| Cc1ccc(-c2nnc(CSc3nc(C(C)C)nc4sc(C)c(C)c34)o2)cc1 | inactive: -1.3% |
| OCCN=c1cc(-c2ccccc2)oc2ccc(Cl)cc12 | inactive: 3.5% |
| Cc1ccc(C(=O)Cn2cnc3ccccc3c2=O)cc1C | inactive: 6.9% |
| COc1cc(NC(=O)CN2c3cccc4cccc(c34)S2(=O)=O)cc(OC)c1OC | inactive: 2.7% |
| CN(Cc1cnn(C)c1)C(=O)c1cc2ccccc2oc1=O | inactive: -4.1% |
| O=C(Nc1ccccc1C(=O)O)c1ncn[nH]1 | inactive: 0.2% |
| O=C(NNC(=S)Nc1ccccc1)c1ccncc1 | inactive: 3.4% |
| COc1ccc(C(=O)c2ccc(N3CCN(C(=O)c4ccc(F)cc4)CC3)c(F)c2)cc1Br | inactive: -2.8% |
| CN(c1cc(=O)n2ccccc2n1)C1CCCCC1 | inactive: 50.5% |
| Cc1ccc(C(=O)CCC(=O)Nc2cccc(C(F)(F)F)c2)cc1C | inactive: 0.9% |
| O=C(Nc1scc(-c2ccc(F)cc2)c1C(=O)O)c1ccco1 | inactive: -1.6% |
| CCC1=[N+](C)CCn2c(C)ccc21 | inactive: -1.8% |
| Cc1occc1C(=O)Nc1ccc2ccccc2c1 | inactive: 0.2% |
| Cc1c(Cl)cccc1NC(=O)c1cc(-c2ccccc2O)n[nH]1 | inactive: 0.4% |
| CCCS(=O)(=O)N1CCCC(C(=O)NCCCOC(C)C)C1 (stereo unspecified) | inactive: 1.9% |
| O=C(OCC(=O)N1CCCc2ccccc21)c1ccc(Br)o1 | inactive: -1.9% |
| O=C1C2C3CCC(C3NCc3ccccc3)C2C(=O)N1Cc1ccccc1 (stereo unspecified) | inactive: 2.1% |
| CCCCn1c(-c2nn(C)c(C)c2Cl)n[nH]c1=S | inactive: 1.2% |
| COc1ccc(C(=O)C(CCCCC(CN(C)C)C(=O)c2ccc(OC)cc2)CN(C)C)cc1 (stereo unspecified) | inactive: 0.3% |
| CCOC(=O)C1=C(NC(=S)NC(=O)c2ccccc2)c2ccccc2CC1(C)C | inactive: 2.1% |
| Cc1nn(C(=O)CN2C(=O)c3ccccc3C2=O)c(C)c1Br | inactive: 11.9% |

| Compound | inhibition |
| --- | --- |
| CC(=O)c1cc2c(cc1NC(=O)CN1CCN(c3ccc(F)cc3)CC1)OCO2 | inactive: 2.7% |
| Cc1cccc2cc3c(NC(=O)CC(C)C)nn(C)c3nc12 | inactive: 3.1% |
| Cn1nc(C(F)(F)F)c2cc(C(=O)NC3CC3)sc21 | inactive: -2.5% |
| CSc1sc(C(=O)O)c(C)c1C(C)=O | inactive: -3.7% |
| CCNC(=O)CC1C(=O)N(C)C(=S)N1NC(=O)c1ccc(Cl)cc1 (stereo unspecified) | inactive: -1.3% |
| COCCCNC(NC(=O)c1ccc(C)cc1)C(Cl)(Cl)Cl (stereo unspecified) | inactive: 0.2% |
| Cc1csc(NC(=O)Cc2coc3cc(C)c(C(C)C)cc23)n1 | inactive: -2.3% |
| COc1ccc(O)c(-c2cc(-c3cccc(Br)c3)n[nH]2)c1 | inactive: 2.3% |
| Cc1ccc(C)c(-c2nc3cc(N)ccc3o2)c1 | inactive: 0.2% |
| O=C(c1ccc2ncsc2c1)N1CCN(c2ccc(O)cc2)CC1 | inactive: 0.5% |
| Cc1ccc(NC2OC(C(O)CO)C(O)C2O)cc1[N+](=O)[O-] (stereo unspecified) | inactive: -4.3% |
| O=C(O)C1C2CCC(C2)C1C(=O)NCc1ccccn1 (stereo unspecified) | inactive: 0.2% |
| C(=C\c1ccccc1)/C=N/Nc1nc(N2CCCCC2)nc(N2CCCCC2)n1 | inactive: -2.3% |
| Cc1csc2nc(CNC(=O)c3ccco3)cn12 | inactive: 0.2% |
| CC(C)Oc1nnnn1-c1ccccc1 | inactive: 0.1% |
| Cc1c(NC(=O)C2CC=CCC2C(=O)O)c(=O)n(-c2ccccc2)n1C (stereo unspecified) | inactive: -0.1% |
| [O-]C1=N/[N+](=C/c2ccccc2Cl)CC1 | inactive: -2.2% |
| O=Cc1cn(-c2ccccc2)nc1-c1ccc2c(c1)OCCO2 | inactive: 0% |
| CSC1=C(C#N)C(CC(C)C)C2=C(CCCC2=O)N1 (stereo unspecified) | inactive: -1.6% |
| Cc1ccc(C(=O)N/N=C/c2cc(C)n(-c3ccc(Br)cc3)c2C)cc1[N+](=O)[O-] | inactive: 4.1% |
| CCC(C)[C@H](NC(=O)Nc1ccc(Oc2ccccc2)cc1)C(=O)O (stereo partly specified) | inactive: -1.6% |
| Cc1csc(SCC(=O)Nc2sc3c(c2C#N)CCC3)n1 | inactive: -1.7% |
| C/C(=C(\C#N)C(=O)NCc1ccccc1)N(C)C | inactive: -0.4% |
| Cc1cc(C(F)(F)F)nn1CC(=O)Nc1cccnc1 | inactive: -2.8% |
| COC(=O)c1cc(COC(=O)c2ccc(OC)c(S(=O)(=O)N3CCCC3)c2)oc1C | inactive: 1.5% |
| O=C(Nc1cccc2ncccc12)c1ccc2c(c1)OCCO2 | inactive: 0.7% |

| Compound | inhibition |
| --- | --- |
| COCC(=O)Nc1nc(-c2ccc(C)cc2)c(C)s1 | inactive: -2.2% |
| CC(C)(C)C(=O)N1CCc2cc(-c3csc(N)n3)ccc21 | inactive: -0.2% |
| Cc1ccc2nc3c(cc2c1)c(NS(=O)(=O)c1ccccc1)nn3CC(C)C | inactive: -2% |
| O=C(NCC1c2ccccc2CCN1C(=O)CN1CCOCC1)C1CCCCC1 (stereo unspecified) | inactive: -1.8% |
| O=C(c1ccc2c(c1)C(=O)N(c1ccc(Cl)cc1)C2=O)N1CCN(c2ccccn2)CC1 | inactive: -5.2% |
| O=c1c2cnn(-c3ccc(F)cc3)c2ncn1Cc1ccccc1 | inactive: -2.1% |
| O=C(CCOc1ccccc1)N1CCN(S(=O)(=O)c2cccs2)CC1 | inactive: -2.8% |
| CCNC(=S)NNC(=O)Cc1ccccc1 | inactive: 2.1% |
| CCCNc1nc(NCC)nc(OC)n1 | inactive: -1.6% |
| CCn1c(N)c(C(=O)NCc2ccco2)sc1=S | inactive: -0.7% |
| COc1ccc2nc(NC(=O)CCn3cccc3)sc2c1 | inactive: -2.5% |
| c1ccc2nc(-c3nc4ccccc4[nH]3)ccc2c1 | inactive: 0.9% |
| Oc1ccc(-c2nc3ccccn3c2NCc2ccco2)cc1 | inactive: -1.4% |
| COc1ccc(C(=O)Cn2c(=O)c(CCC(=O)O)nn3c4ccccc4nc23)cc1OC | inactive: -3.1% |
| O=C(NC1CC2CCC1C2)C1CCN(S(=O)(=O)c2ccc(-c3nn[nH]n3)cc2)CC1 (stereo unspecified) | inactive: -2.4% |
| OC(CN1C2=NCCN2c2ccccc21)c1ccc2c(c1)OCO2 (stereo unspecified) | inactive: -4.2% |
| COc1cc(CC(=O)OCC(=O)c2ccc3c(c2)OCCO3)cc(OC)c1OC | inactive: 0.6% |
| O=C(CN1CCN(S(=O)(=O)c2ccc3ccccc3c2)CC1)N1CCc2ccccc2C1 | inactive: -1.3% |
| CC(C)=CC(=O)OCC(=O)Nc1ccc(F)cc1Cl | inactive: -1.7% |
| O=C(Nc1ccccc1)N1CCN(c2ccccn2)CC1 | inactive: -1.4% |
| CO/N=C\C(=N\Nc1ccc(OC)cc1)C(=O)c1ccccc1 | inactive: 0.8% |
| CS/C(=C\[N+](=O)[O-])Nc1ccccc1 | inactive: 0.5% |
| O=C(Nc1ccc(-n2cnnn2)cc1)C1CCCCC1 | inactive: -1.5% |
| CCN(CC)CCOC(=O)c1cccc(Cl)c1 | inactive: -2.3% |
| COc1ccccc1NC(=O)CCN1CC(C)OC(C)C1 (stereo unspecified) | inactive: 1.4% |
| COc1ccc(S(=O)(=O)N(C)c2c(C)n(C)n(-c3ccccc3)c2=O)cc1OC | inactive: 0.6% |

As a short view, 2 of the compounds above.

| Compound | inhibition |
| --- | --- |
| CCCc1nnc(NC(=O)CNc2ccc(F)cc2)s1 | inactive: 3.5% |
| O=C(c1ccc(F)cc1)c1ccc(N2CCCC2)cc1 | inactive: -4.5% |

Following part:

| Compound | inhibition |
| --- | --- |
| O=C(C(Cc1ccccc1)N1C(=O)c2ccccc2C1=O)N1CCc2ccccc21 (stereo unspecified) | inactive: 1.6% |
| CN(Cc1ccccc1)C(=O)CCSc1nc(-c2ccc3c(c2)OCO3)cc(C(F)(F)F)n1 | inactive: -0.3% |
| CC(=O)NC1=NN(C(C)=O)C(C)(CS(=O)(=O)c2ccc3ccccc3c2)S1 (stereo unspecified) | inactive: 1.1% |
| Nc1cc(=O)[nH]c(SCCNS(=O)(=O)c2ccccc2)n1 | inactive: -1.4% |
| Cc1ccc(-c2nc3ncccn3c2NC(=O)C2CC2)cc1 | inactive: 0.8% |
| CC1(C)Cc2c(sc3ncn(N)c(=N)c23)CO1 | inactive: 1.3% |
| O=C(CCc1ccc(S(=O)(=O)N2CCOCC2)cc1)Nc1nccs1 | inactive: 1.5% |
| CCCCN(CCCC)c1nc(OC)nc(-n2nnc(C(C)=O)c2C)n1 | inactive: 2.6% |
| Cn1c2c(c(=O)n(C)c1=O)C(c1ccc(O)cc1)Nc1ccccc1O2 (stereo unspecified) | inactive: 2.7% |
| Cc1ccc(-c2[nH]c3ccccc3c2C(C[N+](=O)[O-])c2ccco2)cc1 (stereo unspecified) | inactive: -2% |
| Cc1ccsc1C(=O)OCC(=O)NCc1ccc2c(c1)OCO2 | inactive: -2.5% |
| COc1ccc(-c2cc(-c3ccccc3O)[nH]n2)cc1 | inactive: -2% |
| CCN(CC)CCOC(=O)c1c(C)n(C)c2ccc(OC)cc12 | inactive: -2.4% |
| CCOC(=O)Cc1csc(SCn2nnc3ccccc3c2=O)n1 | inactive: -2.1% |
| COc1ccc2nc(NC(=O)CN3CCN(C)CC3)sc2c1 | inactive: 2.4% |
| COc1ccccc1-n1cnc(N)c1C(C)=O | inactive: -1.8% |
| Cc1onc(-c2ccccc2)c1C(=O)Nc1c(C)n(C)n(-c2ccccc2)c1=O | inactive: 2.2% |
| Cc1cc2nc(SCCN3CCOCC3)[nH]c2cc1C | inactive: -2.5% |
| Clc1ccc(CON/C=N/c2ncnc3sccc23)cc1 | inactive: -1.5% |
| O=C(Cc1ccc(Cl)cc1)Nc1ccccc1N1CCOCC1 | inactive: -1.1% |
| C=CCn1cc(-c2ccccc2)cc(C#N)c1=O | inactive: -1% |
| O=C(O)CNC(=O)c1ccccc1F | inactive: 0.3% |
| Cn1c(CN2CCCC2)nc2cc(NS(=O)(=O)c3ccc(Cl)cc3)ccc21 | inactive: -3.8% |

Of the compounds above, these contain a nitro group on carbon.

| Compound | inhibition |
| --- | --- |
| Cc1ccc(NC2OC(C(O)CO)C(O)C2O)cc1[N+](=O)[O-] (stereo unspecified) | inactive: -4.3% |
| Cc1ccc(C(=O)N/N=C/c2cc(C)n(-c3ccc(Br)cc3)c2C)cc1[N+](=O)[O-] | inactive: 4.1% |
| CS/C(=C\[N+](=O)[O-])Nc1ccccc1 | inactive: 0.5% |
| Cc1ccc(-c2[nH]c3ccccc3c2C(C[N+](=O)[O-])c2ccco2)cc1 (stereo unspecified) | inactive: -2% |
